Read-outs that look alike come from different tables or passages of the source. The structures given here were assigned with low confidence; some may be wrong. Marks after values point to notes of the source that are not given here.
Columns and labels:
[1] = biological target: human A2B adenosine receptor (Homo sapiens, UniProt P29275); assay: cyclic AMP functional assay, A2B adenosine receptor in HEK293 cells; details: 10 μM; compared to full agonist NECA (10 μM); tested form: triethylammonium salt
[2] = system: human primary osteoblasts; assay: human primary osteoblast mineralization (Alizarin Red); details: 1 μM, 10 days, osteogenic medium; tested form: triethylammonium salt
[3] = system: human primary osteoclasts; assay: human primary osteoclast differentiation (RANKL, TRAP staining); details: tested form: triethylammonium salt; for inhibition of osteoclast differentiation: versus AlenP and alendronate
[4] = system: ovariectomy-induced osteoporotic mice; details: tested form: triethylammonium salt
[5] = biological target: human A2A adenosine receptor (Homo sapiens, UniProt P29274); assay: cyclic AMP functional assay, A2A adenosine receptor in HEK293 cells
[6] = system: UHMWPE-induced osteolytic mice (WT); assay: UHMWPE wear particle-induced osteolysis (OL) in WT mice calvaria; format: in vivo, mouse; details: tested form: triethylammonium salt
[7] = biological target: hA2AR (Homo sapiens, UniProt P29274); details: read-out: Ki, A2A adenosine receptor affinity; radioligand [3H]CGS21680 10 nM, HEK293 membranes; tested form: triethylammonium salt
[8] = L5 vertebra trabecular bone, μCT, mean ± SEM, 10 mg/kg weekly IP, 9 weeks
[9] = femur cortical bone, μCT, mean ± SEM, 10 mg/kg weekly IP, 9 weeks
[10] = femur trabecular bone, μCT, mean ± SEM, 10 mg/kg weekly IP, 9 weeks

The chains behind the UniProt entries cited, without tags or fusion partners. Where a name states a change or a piece, a line headed by the entry shows the natural chain unless it says otherwise.
UniProt P29275, whole entry: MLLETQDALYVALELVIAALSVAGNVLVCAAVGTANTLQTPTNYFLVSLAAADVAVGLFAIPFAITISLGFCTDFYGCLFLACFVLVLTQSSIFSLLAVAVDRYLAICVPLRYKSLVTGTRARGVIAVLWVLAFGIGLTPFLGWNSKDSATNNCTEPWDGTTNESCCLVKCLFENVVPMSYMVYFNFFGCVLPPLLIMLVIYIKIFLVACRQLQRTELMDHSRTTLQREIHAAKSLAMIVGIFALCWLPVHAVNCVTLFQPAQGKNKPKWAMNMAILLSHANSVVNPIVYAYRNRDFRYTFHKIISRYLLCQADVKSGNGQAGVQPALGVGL

CCNC(=O)[C@H]1O[C@@H](n2cnc3c(N)nc(NCCc4ccc(CCC(=O)NCCOCCOCCOCCOCCOCCOCCC(=O)NCCCC(O)(P(=O)(O)O)P(=O)(O)O)cc4)nc32)[C@H](O)[C@@H]1O
activation of A2B adenosine receptor (cyclic AMP) [1]: 33%
mineralizing capacity of osteoblasts (Alizarin Red staining) [2]: enhanced
inhibition of osteoclast differentiation ([3]; 1 μM dose): significantly more effective
inhibition of osteoclast differentiation in the presence of A2A antagonist ([3]; 1 μM, with ZM241385): partially reversed
inhibition of osteoclast differentiation ([3]; higher doses): equally effective
BS/BV [4, 8]: 68.78 ± 3.48* 1/mm
BV/TV [4, 8]: 16.11 ± 1.63 & %
Tb.N [4, 8]: 3.37 ± 0.32 & 1/mm
Tb.Pf [4, 8]: 9.71 ± 1.44 & 1/mm
Tb.Sp [4, 8]: 0.254 ± 0.019 # & μm
Tb.Th [4, 8]: 0.048 ± 0.002 μm
number of alkaline phosphatase positive osteoblasts in bone ([4]; OVX mice femur, compared to AlenP or saline): increased number of alkaline phosphatase positive osteoblasts
TRAP+ osteoclasts in bone ([4]; OVX mice femur, compared to saline-treated mice): nearly completely eliminated TRAP+ osteoclasts
total body BMD / OP bone loss by DXA scan ([4]; OVX mice, 10 mg/kg weekly IP, after 6 weeks of treatment): significantly reversed OP bone loss
new bone formation in femur (fluorochrome labeling) ([4]; OVX mice, 10 mg/kg weekly IP): stimulated an increase in new bone formation
BMD in femurs and L5 vertebrae by μCT ([4]; OVX mice, 9 weeks of treatment, versus saline or AlenP, p < 0.05): significantly higher BMD
BV [4, 9]: 0.470 ± 0.010 * mm^3
BV/TV [4, 9]: 46.26 ± 1.10
TV [4, 9]: 1.017 ± 0.032 mm^3
BS/BV [4, 10]: 100.03 ± 1.07 & 1/mm
BV/TV [4, 10]: 2.170 ± 0.347 # & %
Tb.N [4, 10]: 0.544 ± 0.099 # & 1/mm
Tb.Pf [4, 10]: 36.37 ± 2.20 1/mm
Tb.Sp [4, 10]: 0.443 ± 0.023 & μm
Tb.Th [4, 10]: 0.0401 ± 0.0014 & μm
A2A agonist toxicities (hypotension, locomotor depression, core body temperature depression) ([4]; mice, acute administration): did not observe these toxicities
EC50 ([5]; read-out: EC50, A2A adenosine receptor activation (cyclic AMP), 1 μM CGS21680 as control, tested form: triethylammonium salt): 9 nM
agonist efficacy at the A2A adenosine receptor (cyclic AMP) ([5]; tested form: triethylammonium salt): full agonist
alkaline phosphatase positive osteoblasts in calvaria ([6]; OL mice, compared to healthy mice): more alkaline phosphatase positive osteoblasts
TRAP+ osteoclasts in calvaria ([6]; OL mice, compared to saline alone): fewer TRAP+ osteoclasts
in vivo bone formation (calcein/Alizarin) ([6]; OL mice): enhanced
calvarial pitting and porosity / inflammatory bone loss by μCT ([6]; WT mice, 10 mg/kg weekly IP, 2 weeks): significant reduction in pitting and porosity
Ki [7]: 69.2 nM
